PubChem BioAssay AID1224828, NIAID | 2016
The whole screen tested about 17,000 reagents; below is an unselected part. 762 of them (4.5%) were called active. 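Active calls include both raised and lowered p65 entry, mostly lowered; wells with fewer than 50 cells lack a z-score.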 Raw values are not corrected between plates. Reagents against one gene are numbered here.

- Aim: 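Knock-downs that increase or decrease LPS-induced p65 nuclear translocation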 (primary screen)
- System: mouse RAW264.7 G9 macrophage reporter cells (GFP-p65, Tnf promoter-mCherry)
- Reagent: siRNA pool against mouse genes, 100 nM
- Duration: 2 days siRNA transfection, then 40 min LPS before fixation
- Treatment: LPS (Salmonella minnesota R595) at 10 ng/ml
- Measurement: 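Imaged p65 nuclear translocation ratio, normalised to the plate median, converted to robust z-scores and averaged across two replicates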
- Reading the numbers: p65 translocation robust z-score: higher = more nuclear NF-kappaB p65 after LPS than the plate median; nuclear/cytoplasmic p65 ratio: higher = more nuclear NF-kappaB p65
- Hit rule: 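Active if robust z is above 3.3 (negative regulators) or below -1.56, the Tlr4 control median (positive regulators); activity score 50 or more; control wells not called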
- Meaning of the calls: active = hit (p65 shift raised or lowered); inactive = no clear change

| Target gene | reagent no. | p65 translocation robust z-score | nuclear/cytoplasmic p65 ratio, rep 1 | nuclear/cytoplasmic p65 ratio, rep 2 | low cell count flag | Call |
| --- | --- | --- | --- | --- | --- | --- |
| Tbata | 1 | -1.72 | 1.29 | 1.2 | enough cells to score | active |
| Trim33 | 1 | 0.52 | 1.72 | 1.45 | enough cells to score | inactive |
| Fchsd1 | 1 | 0.3 | 1.63 | 1.51 | enough cells to score | inactive |
| Kctd10 | 1 | -0.89 | 1.49 | 1.25 | enough cells to score | inactive |
| Nptn | 1 | -0.41 | 1.33 | 1.2 | enough cells to score | inactive |
| Or5h19 | 1 | -0.1 | 1.55 | 1.45 | enough cells to score | inactive |
| Arfgap2 | 1 | 1.13 | 1.49 | 1.44 | enough cells to score | inactive |
| Kazald1 | 1 | -0.39 | 1.56 | 1.61 | enough cells to score | inactive |
| Srpra | 1 | 0.04 | 1.51 | 1.6 | enough cells to score | inactive |
| Faah | 1 | 2.15 | 1.8 | 1.6 | enough cells to score | inactive |
| Rorc | 1 | -0.34 | 1.5 | 1.44 | enough cells to score | inactive |
| Cox6a1 | 1 | 0.19 | 1.55 | 1.87 | enough cells to score | inactive |
| 1700123K08Rik | 1 | – | 1.44 | 1.79 | fewer than 50 cells per well; well left out of scoring | inactive |
| Naa20 | 1 | 0.79 | 2 | 1.63 | enough cells to score | inactive |
| Sp2 | 1 | 0.02 | 1.51 | 1.6 | enough cells to score | inactive |
| Prdm9 | 1 | -0.9 | 1.34 | 1.81 | enough cells to score | inactive |
| Psmb6 | 1 | -1.37 | 1.3 | 1.24 | enough cells to score | inactive |
| Or6k4 | 1 | – | 1.26 | 1.29 | fewer than 50 cells per well; well left out of scoring | inactive |
| Zfp709 | 1 | -0.15 | 1.53 | 1.84 | enough cells to score | inactive |
| Nfkbie | 1 | 1.07 | 1.59 | 1.55 | enough cells to score | inactive |
| Or10v5 | 1 | 0.97 | 1.78 | 1.53 | enough cells to score | inactive |
| Ctss | 1 | 0.55 | 1.61 | 1.39 | enough cells to score | inactive |
| Cog3 | 1 | -0.38 | 1.49 | 1.78 | enough cells to score | inactive |
| Ppip5k2 | 1 | 1.91 | 1.96 | 1.84 | enough cells to score | inactive |
| Dnm3 | 1 | -1 | 1.27 | 1.4 | enough cells to score | inactive |
| Ap4s1 | 1 | -0.65 | 1.44 | 1.48 | enough cells to score | inactive |
| Or10c1 | 1 | -0.72 | 1.35 | 1.16 | enough cells to score | inactive |
| Clasp2 | 1 | 0.5 | 1.47 | 1.44 | enough cells to score | inactive |
| Clic6 | 1 | 1.31 | 1.72 | 2.07 | enough cells to score | inactive |
| Sertad3 | 1 | -0.86 | 1.21 | 1.23 | enough cells to score | inactive |
| Or5w18 | 1 | -1.32 | 1.49 | 1.35 | enough cells to score | inactive |
| Actr8 | 1 | 0.1 | 1.56 | 1.76 | enough cells to score | inactive |
| Smim10l2a | 1 | 0.41 | 1.39 | 1.55 | enough cells to score | inactive |
| Vmn1r93 | 1 | – | 1.29 | 1.13 | fewer than 50 cells per well; well left out of scoring | inactive |
| Lmbr1 | 1 | -1.43 | 1.32 | 1.28 | enough cells to score | inactive |
| Srsf4 | 1 | 1.03 | 1.59 | 1.33 | enough cells to score | inactive |
| Hps1 | 1 | -0.04 | 1.34 | 1.45 | enough cells to score | inactive |
| Cacnb2 | 1 | 0.3 | 1.61 | 1.86 | enough cells to score | inactive |
| Dync1i1 | 1 | -0.39 | 1.39 | 1.36 | enough cells to score | inactive |
| B630019K06Rik | 1 | 1.11 | 1.73 | 2.05 | enough cells to score | inactive |
| Katnal1 | 1 | 0.82 | 1.78 | 1.72 | enough cells to score | inactive |
| F13b | 1 | -0.86 | 1.36 | 1.25 | enough cells to score | inactive |
| Slain1 | 1 | -0.83 | 1.32 | 1.43 | enough cells to score | inactive |
| Tmem60 | 1 | 0.59 | 1.71 | 1.89 | enough cells to score | inactive |
| Slc35f5 | 1 | – | 0.953 | 1.17 | fewer than 50 cells per well; well left out of scoring | inactive |
| Rfx2 | 1 | -0.27 | 1.5 | 1.46 | enough cells to score | inactive |
| Slc30a9 | 1 | – | 1.24 | 1.06 | fewer than 50 cells per well; well left out of scoring | inactive |
| Usp47 | 1 | 1.28 | 1.57 | 1.68 | enough cells to score | inactive |
| Usp47 | 2 | 0.37 | 1.48 | 1.23 | enough cells to score | inactive |
| Slc6a15 | 1 | 0.88 | 1.62 | 1.58 | enough cells to score | inactive |
| Slc6a15 | 2 | -0.69 | 1.37 | 1.18 | enough cells to score | inactive |
| Or51a25 | 1 | – | 1.19 | 1.2 | fewer than 50 cells per well; well left out of scoring | inactive |
| Cyyr1 | 1 | -1.16 | 1.42 | 1.57 | enough cells to score | inactive |
| Mip | 1 | -0.11 | 1.46 | 1.3 | enough cells to score | inactive |
| Lzts2 | 1 | 0.16 | 1.74 | 1.57 | enough cells to score | inactive |
| Chrnb1 | 1 | -0.01 | 1.52 | 1.33 | enough cells to score | inactive |
| Creb1 | 1 | -0.55 | 1.36 | 1.35 | enough cells to score | inactive |
| Creb1 | 2 | – | 1.18 | 1.33 | fewer than 50 cells per well; well left out of scoring | inactive |
| Hectd2 | 1 | -0.29 | 1.61 | 1.5 | enough cells to score | inactive |

Called active, among the entries above:
| Target gene | reagent no. | p65 translocation robust z-score | nuclear/cytoplasmic p65 ratio, rep 1 | nuclear/cytoplasmic p65 ratio, rep 2 | low cell count flag | Call |
| --- | --- | --- | --- | --- | --- | --- |
| Tbata | 1 | -1.72 | 1.29 | 1.2 | enough cells to score | active |
